According to US8173397B2, “Folded recombinant catalytic fragments of multidomain serine proteases, preparation and uses thereof” (TargetEx Kft., priority 2002, dated 2012):
Some of these results come from one statement about several compounds together.

Target: T1, MASP-1 CCP1-CCP2-SP (Homo sapiens, UniProt P48740)
T1 construct: made in house
T1 sequence (P48740 298-699): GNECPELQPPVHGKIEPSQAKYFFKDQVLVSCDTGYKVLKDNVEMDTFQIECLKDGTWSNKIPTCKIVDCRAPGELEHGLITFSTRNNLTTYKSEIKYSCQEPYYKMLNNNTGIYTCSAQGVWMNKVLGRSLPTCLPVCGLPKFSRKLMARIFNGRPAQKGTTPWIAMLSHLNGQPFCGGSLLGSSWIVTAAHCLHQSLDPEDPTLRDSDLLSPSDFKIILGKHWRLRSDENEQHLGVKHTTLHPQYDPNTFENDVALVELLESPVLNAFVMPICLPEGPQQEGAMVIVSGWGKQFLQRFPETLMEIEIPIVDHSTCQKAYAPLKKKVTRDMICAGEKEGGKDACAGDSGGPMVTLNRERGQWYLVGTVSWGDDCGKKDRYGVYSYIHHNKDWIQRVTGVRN
Assay: Inhibition of the enzymatic activities of the MASP-1 fragment by C1-inhibitor and alpha-2-macroglobulin
Assay type: biochemical
Conditions: preincubation; C2, C3, C3(NH3), C4 substrates
Protocol: Reactivity toward C1-inhibitor and alpha-2-macroglobulin—Inhibition of the enzymatic activities of the MASP fragments by C1-inhibitor and alpha-2-macroglobulin were tested as follows. MASP-1 and MASP-2 fragments at concentrations selected in the C2, C3, C3(NH3) and C4 cleavage tests were incubated at 37° C. with excess molar ratios of either C1-inhibitor, alpha-2-macroglobulin, or buffer in 20 mM HEPES, 140 mM NaCl, pH 7.4 for 40 minutes. Complement substrates C2, C3, C3(NH3) or C4 were added at typical concentrations of 0.5-1 μM and the samples were further incubated for 20 minutes. The cleaved and uncleaved chains were visualized by reducing SDS-PAGE and the degree of inhibition was compared.

alpha-2-macroglobulin: human alpha-2-macroglobulin isolated from plasma
molar excess of inhibitor that inhibits all cleavages by MASP-1 CCP1-CCP2-SP: 1-3 fold
